The source of these data is PMC6467423.

Protein sequences, listed by entry. Tags and fused reporters are not part of them.
UniProt O64645: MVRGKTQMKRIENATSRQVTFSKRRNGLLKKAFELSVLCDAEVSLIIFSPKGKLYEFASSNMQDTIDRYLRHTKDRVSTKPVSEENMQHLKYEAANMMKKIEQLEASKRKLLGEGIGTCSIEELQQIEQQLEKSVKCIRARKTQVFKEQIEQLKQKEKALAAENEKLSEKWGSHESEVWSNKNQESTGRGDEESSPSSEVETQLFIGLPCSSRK

The assay deals with T1, GFP:rSPL9 (SQUAMOSA PROMOTER BINDING PROTEIN-LIKE 9) (Arabidopsis thaliana) (UniProt Q700W2).
T1 sequence: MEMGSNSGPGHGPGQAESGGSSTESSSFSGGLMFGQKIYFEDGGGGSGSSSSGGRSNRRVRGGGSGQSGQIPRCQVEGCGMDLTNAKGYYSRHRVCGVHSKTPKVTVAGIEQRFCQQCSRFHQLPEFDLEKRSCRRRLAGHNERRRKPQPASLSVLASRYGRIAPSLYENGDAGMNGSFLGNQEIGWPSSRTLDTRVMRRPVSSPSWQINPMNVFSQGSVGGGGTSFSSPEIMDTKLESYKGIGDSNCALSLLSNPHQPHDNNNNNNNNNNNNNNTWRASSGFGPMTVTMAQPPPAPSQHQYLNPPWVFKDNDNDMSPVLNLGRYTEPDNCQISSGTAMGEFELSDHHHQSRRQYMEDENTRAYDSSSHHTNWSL
Description: co-IP; in vivo co-immunoprecipitation from protein extracts of shoot apical tissue of SPL9::GFP:rSPL9 35S::SOC1:MYC(9x) plants; 1 mg protein for immunoprecipitation.

Results are given in words; binding and its absence hold for the method and conditions named. In cells and extracts the contact can be indirect. Some binding calls cover weakened binding; strength is not graded here. Where a sequence is shown, tags or fusion partners need not be part of it.

For “SOC1:MYC(9x) (SUPPRESSOR OF OVEREXPRESSION OF CONSTANS 1) (from UniProt O64645 1-214)”, the binding result is on record as “binds”.
